SMILES strings stand for the structures. Values after ≈ are worked out from the molar mass of the structure shown.

The series can be described thus: Solubility in phosphate buffer at pH 7.4 after 24 hrs.

Regarding `C[C@H](Nc1nc(NC[C@@H](O)CO)c(Cl)c(Nc2cc(C3CC3)[nH]n2)n1)c1ccc(F)cc1`, the solubility at 24 h turned out to be 19 µM (≈ 8.78 µg/mL).

What is called solubility is how much of the substance goes into solution per volume. Higher therefore signals a readily soluble substance.

The values above are taken from ChEMBL document CHEMBL1155933, “Identification of 4-aminopyrazolylpyrimidines as potent inhibitors of Trk kinases” (J Med Chem, 2008).
